Laboratory results published in PMC10321287, “β-amyloid binds to microglia Dectin-1 to induce inflammatory response in the pathogenesis of Alzheimer's disease” (International Journal of Biological Sciences, 2023).
No constants are given. Whether binding was seen depends on the method and setting. Binding seen in cells or lysates may run through a third protein. Some binding calls cover weakened binding; strength is not graded here. For some assays here: Sequences can lack the tags named with a protein.

The chains behind the UniProt entries cited, without tags or fusion partners. Residues count along the entry.
UniProt P05067, residues 672-713: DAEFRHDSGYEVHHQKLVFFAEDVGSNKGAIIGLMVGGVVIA

Key:
[1] = molecular target: Flag-tagged Dectin-1 and HA-tagged Dectin-1 (UniProt Q6QLQ4); experiment: co-IP; HEK-293 (legend: HEK-293T) cells transfected with Flag-tagged and HA-tagged Dectin-1, exposed to 20 µM Aβ42 for indicated times; Flag-HA interaction
Biotinylated-Aβ42 = Biotinylated-Aβ42 (UniProt P05067); experiment: pull-down; 100 µL of 20 µM biotinylated Aβ42 on streptavidin-agarose beads (biotin alone as control); BV2 cell lysate added, 24 h at 4°C, washed 3 times, western blot; only the target purified

binding [1] | binding (Biotinylated-Aβ42) | Binder
binds |  | Flag-tagged Dectin-1 and HA-tagged Dectin-1 (receptor, UniProt Q6QLQ4 1-244) MKYHSHIENLDEDGYTQLDFSTQDIHKRPRGSEKGSQAPSSPWRPIAVGLGILCFVVVVVAAVLGALGEYGHNSGRNPEEKDNFLSRNKENHKPTESSLDEKVAPSKASQTTGGFSQPCLPNWIMHGKSCYLFSFSGNSWYGSKRHCSQLGAHLLKIDNSKEFEFIESQTSSHRINAFWIGLSRNQSEGPWFWEDGSAFFPNSFQVRNTAPQESLLHNCVWIHGSEVYNQICNTSSYSICEKEL
 | binds | Dectin-1 (receptor, UniProt Q6QLQ4 1-244) MKYHSHIENLDEDGYTQLDFSTQDIHKRPRGSEKGSQAPSSPWRPIAVGLGILCFVVVVVAAVLGALGEYGHNSGRNPEEKDNFLSRNKENHKPTESSLDEKVAPSKASQTTGGFSQPCLPNWIMHGKSCYLFSFSGNSWYGSKRHCSQLGAHLLKIDNSKEFEFIESQTSSHRINAFWIGLSRNQSEGPWFWEDGSAFFPNSFQVRNTAPQESLLHNCVWIHGSEVYNQICNTSSYSICEKEL
